Measurements taken from PubChem BioAssay AID248 (DTP/NCI, 2004).
The list does not hold the whole screen: it gathers tests that were run many times, whatever their T/C, doses with no T/C, and many T/C values between a quarter and a half above the control. Further doses and runs are listed elsewhere. T/C: endpoint of the treated group in % of that of the vehicle group. Some doses have a count of surviving animals in place of a T/C: the source holds a T/C of zero for them, seemingly a mark for toxic or unscored doses. Some doses without a T/C left all or most animals alive at the check, yet need not have been tolerated: the source hardly ever lists a survival T/C far under the control, and the zero likely stands for such cases as well. Survivors were counted at the toxicity check, usually on the fifth day, unless a day is given; later deaths do not show. Schedules are NCI's codes, taken here to give the interval after Q, in days (D) or hours (H), and the number of doses after X. Where survival is the endpoint, the PubChem record calls one and a half times the control and up active, and a quarter to a half above the control has no call in these data; cut-offs in other NCI protocols can differ. Some entries hold several experiments; their values stand side by side, smallest first. Some schedule codes hold Z or #, which are not explained here.

Test system: L1210 leukemia ip in BDF1 mice, survival T/C
Assay: NCI In Vivo Anticancer Drug Screen. Data for tumor model L1210 Leukemia (intraperitoneal) in B6D2F1 (BDF1) mice
Settings: T/C endpoint: mean survival time, higher T/C = longer survival

Question: What does the source list for `O=NN(CCCl)C(=O)NC1CCCCC1`?
Answer: T/C (dose: 0.25 mg/kg/injection, schedule: Q03HX024 (oral), vehicle: saline): 138 % of control; T/C (dose: 2.0 mg/kg/injection, schedule: Q01DX Z (ip), vehicle: carboxymethylcellulose (CMC)): 133 % of control; T/C (dose: 3.12 mg/kg/injection, schedule: Q01DX009 (ip), vehicle: carboxymethylcellulose (CMC)): 125 % of control; T/C (dose: 3.12 mg/kg/injection, schedule: Q01DX017 (ip), vehicle: carboxymethylcellulose (CMC)): 130 % of control; T/C (dose: 3.12 mg/kg/injection, schedule: Q03HX008 (ip), vehicle: carboxymethylcellulose (CMC)): 127 % of control; T/C (dose: 4.0 mg/kg/injection, schedule: Q01DX005 (oral), vehicle: saline): 138 % of control; T/C (dose: 4.0 mg/kg/injection, schedule: Q01DX009 (ip), vehicle: saline with Tween-80): 127 % of control; T/C (dose: 4.0 mg/kg/injection, schedule: Q01DX Z (ip), vehicle: carboxymethylcellulose (CMC)): 141 % of control; survivor count (dose: 4.0 mg/kg/injection, schedule: Q03HX008 (ip), vehicle: saline): 8 of 10; T/C (dose: 4.2 mg/kg/injection, schedule: Q01DX015 (ip), vehicle: carboxymethylcellulose (CMC)): 134 % of control; T/C (dose: 6.0 mg/kg/injection, schedule: Q01DX001 (ip), vehicle: carboxymethylcellulose (CMC)): 110, 113, 114, 115, 118 % of control; T/C (dose: 6.0 mg/kg/injection, schedule: Q01DX003 (ip), vehicle: carboxymethylcellulose (CMC)): 127 % of control; T/C (dose: 6.0 mg/kg/injection, schedule: Q01DX004 (ip), vehicle: carboxymethylcellulose (CMC)): 133 % of control; T/C (dose: 6.0 mg/kg/injection, schedule: Q01DX005 (ip), vehicle: carboxymethylcellulose (CMC)): 145 % of control; T/C (dose: 6.0 mg/kg/injection, schedule: Q02DX004 (ip), vehicle: carboxymethylcellulose (CMC)): 145 % of control; T/C (dose: 6.0 mg/kg/injection, schedule: Q02DX008 (ip), vehicle: carboxymethylcellulose (CMC)): 126 % of control; T/C (dose: 6.2 mg/kg/injection, schedule: Q## X015 (ip), vehicle: carboxymethylcellulose (CMC)): 137 % of control; T/C (dose: 6.25 mg/kg/injection, schedule: Q01DX001 (ip), vehicle: Klucel (hydroxypropylcellulose) (HPC)): 132 % of control; T/C (dose: 6.25 mg/kg/injection, schedule: Q04DX003 (ip), vehicle: carboxymethylcellulose (CMC)): 128 % of control; T/C (dose: 6.25 mg/kg/injection, schedule: Q04DX005 (ip), vehicle: carboxymethylcellulose (CMC)): 145 % of control; T/C (dose: 7.5 mg/kg/injection, schedule: Q01DX001 (iv), vehicle: clinical formulation): 134 % of control; T/C (dose: 8.0 mg/kg/injection, schedule: Q01DX005 (oral), vehicle: saline): 139 % of control; T/C (dose: 8.0 mg/kg/injection, schedule: Q01DX009 (ip), vehicle: saline with Tween-80): 147 % of control; T/C (dose: 8.0 mg/kg/injection, schedule: Q01DX009 (oral), vehicle: saline): 143 % of control; T/C (dose: 8.0 mg/kg/injection, schedule: Q01DX Z (ip), vehicle: carboxymethylcellulose (CMC)): 146 % of control; T/C (dose: 8.2 mg/kg/injection, schedule: Q01DX009 (ip), vehicle: Klucel (hydroxypropylcellulose) (HPC)): 136 % of control; T/C (dose: 9.0 mg/kg/injection, schedule: Q01DX001 (ip), vehicle: carboxymethylcellulose (CMC)): 132, 151, 152, 153, 208 % of control; T/C (dose: 9.0 mg/kg/injection, schedule: Q## X004 (ip), vehicle: carboxymethylcellulose (CMC)): 132 % of control; T/C (dose: 10.0 mg/kg/injection, schedule: Q01DX001 (ip), vehicle: saline): 141 % of control; T/C (dose: 10.0 mg/kg/injection, schedule: Q01DX001 (iv), vehicle: saline): 145 % of control; T/C (dose: 10.0 mg/kg/injection, schedule: Q01DX001 (oral), vehicle: saline): 125 % of control; T/C (dose: 10.0 mg/kg/injection, schedule: Q## X001 (ip), vehicle: carboxymethylcellulose (CMC)): 143 % of control; T/C (dose: 10.0 mg/kg/injection, schedule: Q## X032 (ip), vehicle: carboxymethylcellulose (CMC)): 135 % of control; T/C (dose: 11.0 mg/kg/injection, schedule: Q## X032 (ip), vehicle: carboxymethylcellulose (CMC)): 131 % of control; T/C (dose: 11.2 mg/kg/injection, schedule: Q## X032 (ip), vehicle: carboxymethylcellulose (CMC)): 129 % of control; T/C (dose: 12.0 mg/kg/injection, schedule: Q01DX001 (ip), vehicle: carboxymethylcellulose (CMC)): 157, 158, 166, 237, 282 % of control; T/C (dose: 12.0 mg/kg/injection, schedule: Q## X032 (ip), vehicle: carboxymethylcellulose (CMC)): 145 % of control; T/C (dose: 12.5 mg/kg/injection, schedule: Q01DX001 (ip), vehicle: Klucel (hydroxypropylcellulose) (HPC)): 140 % of control; T/C (dose: 12.5 mg/kg/injection, schedule: Q01DX001 (ip), vehicle: carboxymethylcellulose (CMC), evaluated on day 45): 153, 179, 190, 203 % of control; T/C (dose: 12.5 mg/kg/injection, schedule: Q01DX001 (ip), vehicle: carboxymethylcellulose (CMC), run until all animals had died): 138, 148, 163 % of control; T/C (dose: 12.5 mg/kg/injection, schedule: Q01DX001 (oral), vehicle: carboxymethylcellulose (CMC)): 138 % of control; T/C (dose: 15.0 mg/kg/injection, schedule: Q01DX001 (iv), vehicle: saline): 134 % of control; T/C (dose: 19.4 mg/kg/injection, schedule: Q01DX001 (ip), vehicle: carboxymethylcellulose (CMC)): 145 % of control; T/C (dose: 20.0 mg/kg/injection, schedule: Q01DX001 (ip), vehicle: saline): 138 % of control; T/C (dose: 22.0 mg/kg/injection, schedule: Q01DX001 (ip), vehicle: other): 142 % of control; survivor count (dose: 22.0 mg/kg/injection, schedule: Q01DX001 (iv), vehicle: clinical formulation): 3 of 6; T/C (dose: 25.0 mg/kg/injection, schedule: Q01DX001 (ip), vehicle: Klucel (hydroxypropylcellulose) (HPC), evaluated on day 30): 171 and 226 % of control; T/C (dose: 25.0 mg/kg/injection, schedule: Q01DX001 (ip), vehicle: Klucel (hydroxypropylcellulose) (HPC), evaluated on day 60): 550 and 595 % of control; T/C (dose: 25.0 mg/kg/injection, schedule: Q01DX001 (ip), vehicle: carboxymethylcellulose (CMC), evaluated on day 45): 446, 459, 494 % of control; T/C (dose: 25.0 mg/kg/injection, schedule: Q01DX001 (ip), vehicle: carboxymethylcellulose (CMC), run until all animals had died): 194, 202, 204, 241, 301, 509 % of control; T/C (dose: 25.0 mg/kg/injection, schedule: Q01DX Z (ip), vehicle: carboxymethylcellulose (CMC)): 149 % of control; T/C (dose: 27.0 mg/kg/injection, schedule: Q## X032 (ip), vehicle: carboxymethylcellulose (CMC)): 149 % of control; survivor count (dose: 32.0 mg/kg/injection, schedule: Q01DX009 (oral), vehicle: saline): 10 of 10; T/C (dose: 33.0 mg/kg/injection, schedule: Q01DX001 (ip), vehicle: carboxymethylcellulose (CMC), evaluated on day 46): 519 % of control; T/C (dose: 33.0 mg/kg/injection, schedule: Q01DX001 (ip), vehicle: carboxymethylcellulose (CMC), evaluated on day 60): 605, 645, 859 % of control; survivor count (dose: 33.0 mg/kg/injection, schedule: Q01DX001 (iv), vehicle: clinical formulation): 3 of 6
